# Reference: paper PMC8546600, “Chaperone Spy Protects Outer Membrane Proteins from Folding Stress via Dynamic Complex Formation” (mBio, 2021)
# These are yes or no findings as the source states them, for the method shown. A result given as binding can be weak or reduced; the word gives no strength.
# Molecular target: transmembrane domain of OmpA (tOmpA) (Escherichia coli)
# Assay: NMR spectroscopy of assembled chaperone-OMP complexes; excess urea-denatured OMP added dropwise to the chaperone, supernatant concentrated; 2D [15N,1H]-TROSY or HSQC with one partner [U-2H,15N]-labelled; 25 mM MES, 50 mM NaCl, pH 6.5; 315 K (tOmpA-Spy also at 42, 26 and 15 C); both purified
row,Binder,binding
1,"periplasmic chaperone Spy (natural protein, Escherichia coli, UniProt P77754 24-161, looked up, Spy, periplasmic chaperone of Escherichia coli; [U-2H,15N]-labelled in the HSQC experiment with unlabelled OmpX, unlabelled elsewhere; also called wild-type Spy; WT Spy; source: E. coli, from pET28b(+)-HisSUMO-spy, purified (6xHis-SUMO tag removed, cation exchange)) ADTTTAAPADAKPMMHHKGKFGPHQDMMFKDLNLTDAQKQQIREIMKGQRDQMKRPPLEERRAMHDIIASDTFDKVKAEAQIAKMEEQRKANMLAHMETQNKIYNILTPEQKKQFNANFEKRLTERPAAKGKMPATAE",binds
2,"Spy^Q100L (natural protein, Escherichia coli, UniProt P77754 24-161, looked up, Spy of Escherichia coli with Q100L; also called Q100L variant; source: E. coli, from pET28b(+)-HisSUMO-spy-Q100L, purified) ADTTTAAPADAKPMMHHKGKFGPHQDMMFKDLNLTDAQKQQIREIMKGQRDQMKRPPLEERRAMHDIIASDTFDKVKAEAQIAKMEEQRKANMLAHMETLNKIYNILTPEQKKQFNANFEKRLTERPAAKGKMPATAE",binds
3,"seventeen-kilodalton protein (Skp) (natural protein, Escherichia coli, UniProt P0AEU7 21-161, looked up, Skp, periplasmic chaperone of Escherichia coli; source: E. coli, from pET28b(+)-HisSUMO-skp, purified (6xHis-SUMO tag removed, cation exchange)) ADKIAIVNMGSLFQQVAQKTGVSNTLENEFKGRASELQRMETDLQAKMKKLQSMKAGSDRTKLEKDVMAQRQTFAQKAQAFEQDRARRSNEERGKLVTRIQTAVKSVANSQDIDLVVDANAVAYNSSDVKDITADVLKQVK",binds
